Test results published in PubChem BioAssay AID1671190 (National Center for Advancing Translational Sciences (NCATS), 2021).
Screen size: about 580,000 compounds; about 6,100 (1.1%) were called active. The shares of active, inactive and inconclusive entries below differ from those in the screen. Calls follow the shape of the dose curve; as a rule, active = well fitted inhibition curve with a large enough effect; inconclusive = small, poorly fitted or top-dose-only effect, or another doubt; inactive = no such curve, though single readings can be large or run the other way. Where the call is inconclusive, the potency comes from a doubtful curve fit. Peptide text beside a SMILES is read from it. * marks the point of attachment. Boc = CC(C)(C)OC(=O)*
% is scaled to controls: 0 for no effect and ±100 for the full control effect; potency is read from the fitted curve at half-maximal effect.

Amino acid sequences for entries named in this document (tags omitted). A change or cut given only in a name is not applied to a line headed by its entry.
UniProt P18054: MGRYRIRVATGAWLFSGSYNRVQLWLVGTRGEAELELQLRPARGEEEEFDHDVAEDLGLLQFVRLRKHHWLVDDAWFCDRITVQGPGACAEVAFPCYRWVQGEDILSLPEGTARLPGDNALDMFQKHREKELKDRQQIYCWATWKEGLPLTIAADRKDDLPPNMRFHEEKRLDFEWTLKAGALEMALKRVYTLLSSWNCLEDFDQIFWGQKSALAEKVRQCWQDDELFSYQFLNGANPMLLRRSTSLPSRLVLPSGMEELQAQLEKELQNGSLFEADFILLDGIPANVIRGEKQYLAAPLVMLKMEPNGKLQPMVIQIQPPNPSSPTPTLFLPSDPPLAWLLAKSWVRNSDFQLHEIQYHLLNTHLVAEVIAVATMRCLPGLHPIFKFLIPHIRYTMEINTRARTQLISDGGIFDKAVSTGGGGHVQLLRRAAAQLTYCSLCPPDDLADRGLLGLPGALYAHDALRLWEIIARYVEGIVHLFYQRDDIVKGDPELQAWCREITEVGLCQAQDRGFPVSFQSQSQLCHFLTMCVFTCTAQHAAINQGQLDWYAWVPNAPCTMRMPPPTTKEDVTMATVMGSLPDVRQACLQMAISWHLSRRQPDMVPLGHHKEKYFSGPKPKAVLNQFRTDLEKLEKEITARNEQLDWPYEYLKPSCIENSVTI

These compounds were tested against Polyunsaturated fatty acid lipoxygenase ALOX12 (Homo sapiens) (UniProt P18054) (assay: Primary qHTS assay for inhibitors of human arachidonate 12S-lipoxygenase (ALOX12): Round 2). Conditions: purified 12hLO, xylenol orange hydroperoxide absorbance; activity change, negative = inhibition: at 108 µM (top of the series) unless noted.
Summary of the method: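 Hydroperoxide product was detected by ferrous iron/xylenol orange as the 573 to 405 nm absorbance ratio. Arachidonic acid at 40 uM (final) was turned over for 30 min at room temperature by 150 nM human 12hLO, pH 7.0 Hepes buffer, after 15 min compound preincubation.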
CC(CNC(=O)Cn1nc(C(N)=O)c2ccccc2c1=O)(c1ccccc1)c1ccccc1 was tested, and the Potency was active: 31.6 µM. CCOc1cc(-c2nc(-c3ccccc3OC)no2)cc(OCC)c1OCC was tested, and the Potency was inconclusive: 0.631 µM [inhibitor, full curve, poor fit]. For O=S(=O)(c1ccccc1)N(C1=NCCS1)S(=O)(=O)c1ccccc1, the “activity change, negative = inhibition” value was inactive: -2.91%. For CCCC(C)NC(=O)c1ccc2c(c1)NC(=O)CS2 (stereo unspecified), the Potency was inconclusive: 56.2 µM [inhibitor, single point]. In the case of C/C(=N\NC(=S)NCc1ccccc1)c1ccc(Br)cc1, the Potency is reported as inconclusive: 39.8 µM [inhibitor, partial curve, poor fit]. With Oc1cc(-c2nc3ccccc3s2)cc2c1OCCN(Cc1cccn1-c1nccs1)C2 the Potency was inconclusive: 126 µM [inhibitor, single point]. With Cc1ccc(C(=O)O)cc1NC(=O)CSc1nnc(-c2ccccc2F)n1C1CCCCC1 the activity change, negative = inhibition was inconclusive: -33.2% [inhibitor]. For Cc1nc2cc(OC3(C)CCN(Cc4ccc(OC(F)(F)F)cc4)C3)ccc2s1 (stereo unspecified), the Potency was inconclusive: 50.1 µM [inhibitor, partial curve, poor fit]. COc1ccc(-c2nc3cc(NC(=O)COc4ccccc4C)ccc3o2)cc1 was tested, and the Potency was inconclusive: 100 µM [inhibitor, partial curve, poor fit]. For CCC(C)C(NC(=O)C(C)NC(=O)CNC(=O)OC(C)(C)C)C(N)=O (stereo not drawn) (Boc-Gly-Ala-Ile-NH2; configuration not given here), the Potency was inconclusive: 112 µM [inhibitor, single point]. For O=C(COC(=O)CCc1nc2ccccc2c(=O)[nH]1)Nc1ccc(Cl)cn1, the Potency was inconclusive: 44.7 µM [inhibitor, partial curve, poor fit]. For Cc1ccc(N2C(=O)C3C4C=CC(CC4)C3C2=O)cc1[N+](=O)[O-] (stereo unspecified), the Potency was inconclusive: 89.1 µM [inhibitor, single point]. For COc1cccc(C(NC(C)=O)c2nc(-c3ccc4ccccc4c3)cs2)c1 (stereo unspecified), the Potency was inconclusive: 44.7 µM [inhibitor, partial curve, poor fit]. In the case of CCOC(=O)c1c(NC(=O)c2cc(-c3ccc(OC)c(OC)c3)on2)sc2c1CCCC2, the activity change, negative = inhibition is reported as inconclusive: -32.9% [inhibitor]. Cc1ccc(-c2cc(-c3ccccc3Cl)c(C#N)c(N)n2)o1 was tested, and the Potency was active: 7.08 µM. In the case of Cc1cccc(N2CCN(C(=O)c3cc(=O)[nH]c4ccccc34)CC2)c1C, the Potency is reported as inconclusive: 126 µM [inhibitor, single point]. In the case of Cc1cc(C)c(S(=O)(=O)N2CCCC2=O)cc1N(C)S(C)(=O)=O, the Potency is reported as inconclusive: 89.1 µM [inhibitor, single point]. In the case of Cc1nn(C)c(C)c1CCC(=O)Nc1nc(C(C)C)cs1, the Potency is reported as inconclusive: 5.62 µM [inhibitor, full curve, poor fit]. O=C(Nc1ccccc1N1CCOCC1)c1ccc(N2CCOCC2)c([N+](=O)[O-])c1 was tested, and the “activity change, negative = inhibition” value was inactive: 26.9%. In the case of CNC(=O)NNC(=O)c1nc(-c2ccccc2)c(C)o1, the Potency is reported as inconclusive: 31.6 µM [inhibitor, single point]. For O=C(CN1C(=O)CCSc2ccc(S(=O)(=O)N3CCCC3)cc21)Nc1cccc(F)c1, the Potency was inconclusive: 158 µM [inhibitor, single point]. In the case of O=C(Nc1cc(F)ccc1F)c1cccc(-n2cnnn2)c1, the “activity change, negative = inhibition” value is reported as inactive: 0.481%. O=C1NC[C@H](Cc2ccc(O)cc2)N(CCc2cc(C(F)(F)F)cc(C(F)(F)F)c2)C1=O was tested, and the Potency was inconclusive: 3.98 µM [inhibitor, full curve]. CC(C)Cn1c(NCc2ccco2)nc2c1c(=O)[nH]c(=O)n2C was tested, and the Potency was inconclusive: 3.16 µM [inhibitor, full curve, poor fit]. With CC1=NOC(=O)/C1=C/c1ccc(O)c(Br)c1 the Potency was inconclusive: 4.47 µM [inhibitor, full curve, poor fit]. O=C(O)c1sc(C(=O)O)c(OCCO)c1OCCO was tested, and the Potency was inconclusive: 35.5 µM [inhibitor, partial curve, poor fit]. With COc1ccc(CCNC(=O)CCN2C(=O)[C@@H]3Cc4ccccc4CN3C2=O)cc1 the “activity change, negative = inhibition” value was inactive: 24.4%. For CCOC(=O)c1oc2cc(OC(=O)c3ccco3)ccc2c(=O)c1-c1ccc(OC)cc1, the Potency was inconclusive: 56.2 µM [inhibitor, partial curve, poor fit]. For COc1ccc2c(c1)[N+](C)(C)C(C)(C)C=C2C, the Potency was active: 31.6 µM. N#CC1(Nc2ccc([N+](=O)[O-])cc2)CCCC1 was tested, and the Potency was inconclusive: 5.01 µM [inhibitor, full curve, poor fit]. O=C(Nc1cccnc1Oc1ccccc1)c1cccc(Cl)c1Cl was tested, and the Potency was inconclusive: 35.5 µM [inhibitor, partial curve]. Oc1ccccc1-c1cc(-c2ccccc2Cl)[nH]n1 was tested, and the Potency was inconclusive: 44.7 µM [inhibitor, partial curve, poor fit]. For Cn1c(CNc2ccccn2)c(C#N)c2ccccc21, the “activity change, negative = inhibition” value was inactive: -1.05%. With CCOC(=O)N1CCN(C(=O)c2oc3ccc(S(=O)(=O)N4CCCCC4)cc3c2C)CC1 the “activity change, negative = inhibition” value was inactive: 11.5%. In the case of COc1ccc(CC(CN)c2ccccc2)cc1 (stereo unspecified), the Potency is reported as inconclusive: 56.2 µM [inhibitor, partial curve, poor fit]. In the case of CC(Oc1ccc(-c2ccccc2)cc1)C(N)=O (stereo unspecified), the “activity change, negative = inhibition” value is reported as inactive: 47.2%. In the case of Nc1nsc2ccccc12, the “activity change, negative = inhibition” value is reported as inactive: -15.4%. In the case of COc1cccc(NC(=O)COc2coc(CN3CCSCC3)cc2=O)c1, the “activity change, negative = inhibition” value is reported as inactive: 6.1%. With COc1ccccc1CNC(=O)Cn1cc2c(n1)-c1c(oc(C(=O)N3CCOCC3)c1C)CC2 the Potency was inconclusive: 44.7 µM [inhibitor, partial curve, poor fit]. For COc1ccc(-c2nn(C)c(=O)c3ccccc23)cc1NC(=O)COc1cccc(C)c1, the “activity change, negative = inhibition” value was inactive: 5.69%. For O=S(=O)(/N=C(/NS(=O)(=O)c1ccccc1)c1ccccc1)c1ccccc1, the “activity change, negative = inhibition” value was inactive: -4.03%. COc1ccc(CN2C(=O)[C@@H]3C[C@@H](O)CN3C3(CN(Cc4cccs4)C3)C2=O)cc1 was tested, and the Potency was inconclusive: 17.8 µM [inhibitor, full curve, poor fit]. With CN1/C(=C/c2cccc[n+]2C)Sc2ccccc21 the “activity change, negative = inhibition” value was inactive: 0%. With O=C(C1CCCN(Cc2cc(Br)ccc2O)C1)N1CCCCC1 (stereo unspecified) the “activity change, negative = inhibition” value was inactive: -8.57%. With CCCCn1c(SCC(=O)Nc2nccs2)nc2ccccc2c1=O the Potency was inconclusive: 14.1 µM [inhibitor, partial curve, poor fit]. For O=C(NCc1ccncc1)c1csc([C@@H]2O[C@H](CO)[C@@H](O)[C@H]2O)n1, the Potency was inconclusive: 70.8 µM [inhibitor, partial curve, poor fit]. COc1ccc(-c2cc(NC(C)=O)c3ncc(-c4ccc(OC)c(OC)c4)n3c2)cc1OC was tested, and the Potency was inconclusive: 79.4 µM [inhibitor, single point]. With CN1CCN(c2ncnc3ccc(-c4ccc(C(=O)N(C)C)cc4)cc23)CC1 the Potency was inconclusive: 44.7 µM [inhibitor, partial curve, poor fit]. With CN(C)c1ccc(-c2nnc(SCC3CCCO3)n2C)cc1 (stereo unspecified) the Potency was inconclusive: 25.1 µM [inhibitor, partial curve, poor fit]. CCOc1cccc2sc(N(CCN(C)C)C(=O)c3ccc4c(c3)OCCO4)nc12 was tested, and the Potency was inconclusive: 100 µM [inhibitor, partial curve, poor fit]. With COC(=O)C1=C(CSCc2ccco2)NC(=O)NC1c1cc(C)ccc1C (stereo unspecified) the Potency was inconclusive: 100 µM [inhibitor, single point]. For Cc1ccc(CN2C(=O)C(CC(C)C)Nc3ncnc(N4CCN(c5ccccn5)CC4)c32)cc1 (stereo unspecified), the “activity change, negative = inhibition” value was inactive: -29.6%. In the case of O=S(=O)(CCN1CCOCC1)c1ccc(Cl)cc1, the “activity change, negative = inhibition” value is reported as inactive: 0%. With COC(=O)c1cc(C(=O)c2ccc(Cl)cc2Cl)cn1C the Potency was inconclusive: 56.2 µM [inhibitor, partial curve, poor fit]. With COc1cc2nc(SCC(=O)NCCc3ccccc3)n(Cc3ccco3)c(=O)c2cc1OC the Potency was inconclusive: 112 µM [inhibitor, partial curve, poor fit]. Cc1ccc(-c2onc(C)c2C)cc1S(=O)(=O)Nc1ccccn1 was tested, and the Potency was inconclusive: 126 µM [inhibitor, partial curve, poor fit]. In the case of CN(Cc1cccs1)C(=O)c1cc2ccccc2oc1=O, the “activity change, negative = inhibition” value is reported as inactive: 3.63%. In the case of CCCCn1c(=O)nc2n(-c3ccc(Cl)cc3)c3ccccc3cc-2c1=O, the “activity change, negative = inhibition” value is reported as inactive: -2.31%. With CSc1ccc(C2NN=C(c3ccccc3)S2)cc1 (stereo unspecified) the Potency was inconclusive: 79.4 µM [inhibitor, single point]. For O=C(CN(CC1CC1)C1CC1)NC(=O)NCc1ccco1, the activity change, negative = inhibition was inconclusive: -30.3% [inhibitor]. CC(C)c1ccc(NC(=O)N[C@H]2CO[C@H]3[C@@H]2OC[C@H]3OC(=O)Nc2ccc(Oc3ccccc3)cc2)cc1 was tested, and the “activity change, negative = inhibition” value was inactive: -8.63%. COC(=O)c1ccccc1S(=O)(=O)N(Cc1ccco1)Cc1cc2cc(OC)ccc2[nH]c1=O was tested, and the Potency was inconclusive: 35.5 µM [inhibitor, partial curve, poor fit]. CCc1noc(C(C)N2CCC(c3ccnn3CCO)CC2)n1 (stereo unspecified) was tested, and the Potency was inconclusive: 50.1 µM [inhibitor, partial curve, poor fit]. In the case of CCOc1ccc(-c2nc(CNC(=O)Nc3cccc(OC)c3)c(C)o2)cc1, the Potency is reported as inconclusive: 0.316 µM [inhibitor, full curve, poor fit]. For Cc1ccc(Cc2c(-c3ccco3)nc3ccc(C)cn23)cc1, the Potency was inconclusive: 44.7 µM [inhibitor, partial curve, poor fit]. For Cc1ccccc1-n1ccnc1SCC(=O)c1ccc(F)c(F)c1, the Potency was inconclusive: 100 µM [inhibitor, single point].
